Test results reported in PMC6949099.
Results are given in words; binding and its absence hold for the method and conditions named. Binding seen in cells or lysates may run through a third protein. Some results given as binding are weak or reduced against the parent protein; the word gives no strength.

Legend:
[1] = target: T1, Klotho (mouse (endogenous in C57/6J cartilage and in mouse chondrocytes)) (UniProt O35082); experiment: co-IP; mouse chondrocytes (cells), with or without cyclic tensile strain (0.1, 0.5, 1 Hz, 48 h), with Klotho over-expression, empty vector or β-catenin knock-down
T1 sequence: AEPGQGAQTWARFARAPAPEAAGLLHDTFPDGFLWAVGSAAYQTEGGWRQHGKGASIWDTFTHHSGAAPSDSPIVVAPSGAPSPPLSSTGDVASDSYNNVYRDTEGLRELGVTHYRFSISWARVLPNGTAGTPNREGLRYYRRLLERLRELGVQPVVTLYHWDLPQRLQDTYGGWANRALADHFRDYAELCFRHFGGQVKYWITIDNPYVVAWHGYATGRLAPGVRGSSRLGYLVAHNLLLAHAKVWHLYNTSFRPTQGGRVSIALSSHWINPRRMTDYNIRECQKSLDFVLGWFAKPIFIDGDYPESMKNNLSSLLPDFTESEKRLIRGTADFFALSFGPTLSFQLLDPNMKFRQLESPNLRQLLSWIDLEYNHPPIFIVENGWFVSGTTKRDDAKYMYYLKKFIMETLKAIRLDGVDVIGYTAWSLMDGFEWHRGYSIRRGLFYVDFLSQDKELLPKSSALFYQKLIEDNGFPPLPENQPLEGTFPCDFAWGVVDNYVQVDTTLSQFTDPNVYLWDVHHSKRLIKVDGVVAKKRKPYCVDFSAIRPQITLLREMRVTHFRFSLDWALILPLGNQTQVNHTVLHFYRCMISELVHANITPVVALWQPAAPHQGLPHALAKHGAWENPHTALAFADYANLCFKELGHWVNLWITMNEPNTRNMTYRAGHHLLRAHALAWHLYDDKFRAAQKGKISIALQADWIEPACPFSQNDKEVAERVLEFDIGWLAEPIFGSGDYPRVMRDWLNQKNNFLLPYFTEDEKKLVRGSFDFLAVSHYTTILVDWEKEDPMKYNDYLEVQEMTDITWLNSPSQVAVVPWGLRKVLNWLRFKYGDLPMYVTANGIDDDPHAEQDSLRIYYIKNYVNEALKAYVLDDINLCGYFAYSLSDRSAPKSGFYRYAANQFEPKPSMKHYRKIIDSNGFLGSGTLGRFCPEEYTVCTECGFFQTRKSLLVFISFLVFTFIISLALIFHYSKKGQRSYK

[2] = target: T2, Klotho (over-expressed from a lentiviral vector) (UniProt O35082); experiment: as above
T2 sequence: T1 sequence

[3] = target: T1, Klotho (mouse (endogenous in C57/6J cartilage and in mouse chondrocytes)); experiment: co-IP; supernatant of mouse chondrocytes, with or without cyclic tensile strain (0.1, 0.5, 1 Hz, 48 h), with Klotho over-expression, empty vector or β-catenin knock-down
[4] = target: T2, Klotho (over-expressed from a lentiviral vector); experiment: as above
[5] = target: T1, Klotho (mouse (endogenous in C57/6J cartilage and in mouse chondrocytes)); experiment: co-IP; cartilage tissue of sham-operated and ACLT (OA) mice homogenised in lysis buffer (30 mM Tris-HCl, 150 mM NaCl, 1% Triton X-100, 2 mM EDTA, 10% glycerol); 2 ug antibody against Klotho, 4 h at 4 °C, Protein A/G beads; Western blot of Wnt1, 4 and 7a; the precipitating antibody for Dvl and Frizzled is not told

Measured: binding

B1: Wnt1 (ligand, UniProt P04426 28-370)
chain: ANSSGRWWGIVNIASSTNLLTDSKSLQLVLEPSLQLLSRKQRRLIRQNPGILHSVSGGLQSAVRECKWQFRNRRWNCPTAPGPHLFGKIVNRGCRETAFIFAITSAGVTHSVARSCSEGSIESCTCDYRRRGPGGPDWHWGGCSDNIDFGRLFGREFVDSGEKGRDLRFLMNLHNNEAGRTTVFSEMRQECKCHGMSGSCTVRTCWMRLPTLRAVGDVLRDRFDGASRVLYGNRGSNRASRAELLRLEPEDPAHKPPSPHDLVYFEKSPNFCTYSGRLGTAGTAGRACNSSSPALDGCELLCCGRGHRTRTQRVTERCNCTFHWCCHVSCRNCTHTRVLHECL
binds: [1] | [2] | [3] | [4] | [5]

B2: Wnt7a (ligand, UniProt P24383 32-349)
chain: LGASIICNKIPGLAPRQRAICQSRPDAIIVIGEGSQMGLDECQFQFRNGRWNCSALGERTVFGKELKVGSREAAFTYAIIAAGVAHAITAACTQGNLSDCGCDKEKQGQYHRDEGWKWGGCSADIRYGIGFAKVFVDAREIKQNARTLMNLHNNEAGRKILEENMKLECKCHGVSGSCTTKTCWTTLPQFRELGYVLKDKYNEAVHVEPVRASRNKRPTFLKIKKPLSYRKPMDTDLVYIEKSPNYCEEDPVTGSVGTQGRACNKTAPQASGCDLMCCGRGYNTHQYARVWQCNCKFHWCCYVKCNTCSERTEMYTCK
binds: [1] | [2] | [3] | [4] | [5]

B3: Wnt4 (ligand, UniProt P22724 23-351)
chain: SNWLYLAKLSSVGSISEEETCEKLKGLIQRQVQMCKRNLEVMDSVRRGAQLAIEECQYQFRNRRWNCSTLDSLPVFGKVVTQGTREAAFVYAISSAGVAFAVTRACSSGELEKCGCDRTVHGVSPQGFQWSGCSDNIAYGVAFSQSFVDVRERSKGASSSRALMNLHNNEAGRKAILTHMRVECKCHGVSGSCEVKTCWRAVPPFRQVGHALKEKFDGATEVEPRRVGSSRALVPRNAQFKPHTDEDLVYLEPSPDFCEQDIRSGVLGTRGRTCNKTSKAIDGCELLCCGRGFHTAQVELAERCGCRFHWCCFVKCRQCQRLVEMHTCR
binds: [1] | [2] | [3] | [4] | [5]
